Experimental findings from ChEMBL document CHEMBL4513143, “CO-ADD screening of University of Natural Resources and Life (Austria) compounds” are described below.

SMILES strings stand for the structures. Some of the results follow. Entries with a potency or affinity are not part of this list.

This assay relates to Pseudomonas aeruginosa. Conditions: Concentration 32 ug.mL-1; ASSAY_TEST Inhibition of Bacterial Growth; detection method Absorption (OD600); MEDIA CAMHB; plate type 384well; NBS; CORNING #3640; time 18 hr.
Broadly, the Inhibition is the percentage by which the read-out fell short of the control. As to `[N-]=[N+]=NC[C@H]1OC(O)[C@@H](O)[C@@H]1O` (stereo partly specified), the Inhibition is reported as 1.65%.
